The text below walks through data of PubChem BioAssay AID330 (DTP/NCI, 2004).

For the test, the system named is P388 leukemia ip, CD2F1 mice, survival T/C. Briefly: NCI In Vivo Anticancer Drug Screen. Data for tumor model P388 Leukemia (intraperitoneal) in CD2F1 (CDF1) mice. The following applies: T/C endpoint: median survival time, higher T/C = longer survival.
Where [1] appears, read: dose: 50.0 mg/kg/injection, schedule: Q01DX005 (ip), vehicle: saline with Tween-80.
The mark [2] stands for this setting: dose: 100.0 mg/kg/injection, schedule: Q01DX005 (ip), vehicle: saline with Tween-80.
Where [3] appears, read: dose: 200.0 mg/kg/injection, schedule: Q01DX005 (ip), vehicle: saline with Tween-80.
Where [4] appears, read: dose: 50.0 mg/kg/injection, schedule: Q01DX009 (ip), vehicle: Klucel (hydroxypropylcellulose) (HPC).
Where [5] appears, read: dose: 100.0 mg/kg/injection, schedule: Q01DX009 (ip), vehicle: Klucel (hydroxypropylcellulose) (HPC).
[6] abbreviates: dose: 200.0 mg/kg/injection, schedule: Q01DX009 (ip), vehicle: Klucel (hydroxypropylcellulose) (HPC).
Setting [7] is: dose: 200.0 mg/kg/injection, schedule: Q04DX003 (ip), vehicle: saline with Tween-80.
[8] abbreviates: dose: 400.0 mg/kg/injection, schedule: Q04DX003 (ip), vehicle: saline with Tween-80.

SMILES strings stand for the structures. The list does not hold the whole screen: it is rich in T/C values a quarter to a half above the control, in often repeated tests (any T/C) and in doses without a T/C. Other doses and runs of a compound stand elsewhere. T/C is the treated group as % of the vehicle group. Some doses have a count of surviving animals in place of a T/C: the source files T/C as zero there, which appears to mark a toxic dose or a test without result, not a measured value. Some survivor counts are full or nearly so, which does not show that the dose was tolerated: survival well below the control is almost never listed, so the zero probably covers shortened survival too. Survivors were counted at the toxicity check, usually on the fifth day, unless a day is given; later deaths do not show. Schedules are NCI's codes, taken here to give the interval after Q, in days (D) or hours (H), and the number of doses after X. Some entries hold several experiments; the values are given in rising order. Where survival is the endpoint, the PubChem record calls one and a half times the control and up active, and a quarter to a half above the control has no call in these data; cut-offs in other NCI protocols can differ. Some T/C values carry the count of animals alive at the toxicity check (mostly the fifth day); where none is given, no animal had died by that day.

On to `COc1ccc(OC)c2c1CCC(O)(C#N)C2` (configuration not stated), for which the survivor count (dose: 1.56 mg/kg/injection, schedule: Q01DX009 (ip), vehicle: other) is on record as 6 of 6; the survivor count (dose: 12.5 mg/kg/injection, schedule: Q01DX009 (ip), vehicle: other) is on record as 6 of 6; the survivor count (dose: 25.0 mg/kg/injection, schedule: Q01DX009 (ip), vehicle: other) is 1 of 6 and 3 of 6; the survivor count (dose: 50.0 mg/kg/injection, schedule: Q01DX009 (ip), vehicle: other) was 0 of 6.

With `CC(=O)O/C=C(/C=C/OC(C)=O)C(C/C=C(\C)C#CC=C(C)C)OC(C)=O` (configuration not stated), the survivor count (dose: 85.0 mg/kg/injection, schedule: Q01DX005 (ip), vehicle: saline with Tween-80) is on record as 0 of 6.

With `CCCN(CCC)C(=O)[S-].CCCN(CCC)C(=O)[S-].[Ni+2]`, under “dose: 6.25 mg/kg/injection, schedule: Q01DX009 (ip), vehicle: saline with Tween-80”, the survivor count is reported as 6 of 6.

On to `N#Cc1c(=O)n(CCO)nc2c3ccccc3c3ccccc3c12`, for which, where the note is “dose: 400.0 mg/kg/injection, schedule: Q04DX002 (ip), vehicle: saline with Tween-80”, the survivor count is 6 of 6.

Take `CN1CC2c3cc4c(cc3CC1c1cc3c(cc12)OCO3)OCO4` (configuration not stated): for the setting “dose: 400.0 mg/kg/injection, schedule: Q01DX001 (ip), vehicle: saline with Tween-80”, the survivor count is 0 of 6.

For the compound `O=c1cccc2c3ccccc3ccn12`, for the setting “dose: 240.0 mg/kg/injection, schedule: Q01DX005 (ip), vehicle: Klucel (hydroxypropylcellulose) (HPC)”, the survivor count is recorded as 5 of 6.

Consider `CN1c2ccccc2S(=O)(=O)n2c(COc3ccc(Cl)cc3)nnc21`, for which the survivor count reads like this: under setting [1], 6 of 6; under setting [2], 6 of 6; under setting [3], 6 of 6.

With `O=S1(=O)CC(Cl)(Cl)C1`, the survivor count under setting [3] is 3 of 6.

For `Nc1ncnc2c1C=C(B(O)O)B(O)N2`, the survivor count under setting [4] was 2 of 6, the survivor count under setting [5] was 0 of 6 and the survivor count under setting [6] is reported as 0 of 6.

As for `C=CCC1=CC2(OC)C(=O)C(OC)(OC)C1C1C(OC)(OC)C(=O)C(OC)=CC12CC=C` (configuration not stated), the T/C reads like this: (dose: 37.5 mg/kg/injection, schedule: Q01DX009 (ip), vehicle: Klucel (hydroxypropylcellulose) (HPC)) 126 % of control; (dose: 150.0 mg/kg/injection, schedule: Q01DX009 (ip), vehicle: Klucel (hydroxypropylcellulose) (HPC)) 133 % of control [5 of 6 alive].

For `O=C1C(CO)=C[C@H](O)[C@H]2O[C@@H]12`, where the note is “dose: 12.5 mg/kg/injection, schedule: Q01DX009 (ip), vehicle: saline + alcohol”, the T/C was 130 % of control. For the same compound, the survivor count is reported as 0 of 6 (dose: 50.0 mg/kg/injection, schedule: Q01DX009 (ip), vehicle: saline + alcohol) and 0 of 6 (dose: 100.0 mg/kg/injection, schedule: Q01DX009 (ip), vehicle: saline + alcohol).

Consider `CCOC(=O)NC(=O)CNc1ncc([N+](=O)[O-])s1`, for which the survivor count (dose: 400.0 mg/kg/injection, schedule: Q01DX001 (ip), vehicle: Klucel (hydroxypropylcellulose) (HPC)) was 0 of 6.

As for `ClC1=CC=c2ccc3c(c2[N-]1)[N-]C(Cl)=CC=3.ClC1=CC=c2ccc3c(c2[N-]1)[N-]C(Cl)=CC=3.O=[N+]([O-])O.[Cu+]`, the survivor count reads like this: (dose: 100.0 mg/kg/injection, schedule: Q04DX002 (ip), vehicle: suspension in saline) 0 of 6; (dose: 200.0 mg/kg/injection, schedule: Q04DX002 (ip), vehicle: suspension in saline) 0 of 6; (dose: 400.0 mg/kg/injection, schedule: Q04DX002 (ip), vehicle: suspension in saline) 0 of 6.

As for `COC(=O)Nc1nc2ccc(C(=O)OC(C)C)cc2[nH]1`, the T/C is 132 % of control under setting [7]; 144 and 148 % of control under setting [8].

As to `CCn1c2ccccc2c2cc(/C=N/N=C/c3ccc4c(c3)c3ccccc3n4CC)ccc21`, the survivor count is reported as 5 of 5 (dose: 12.5 mg/kg/injection, schedule: Q01DX005 (ip), vehicle: saline with Tween-80); 5 of 5 (dose: 25.0 mg/kg/injection, schedule: Q01DX005 (ip), vehicle: saline with Tween-80); 5 of 5 under setting [1]; 5 of 5 under setting [2]; 4 of 5 under setting [3].

For the compound `NCCc1cc(O)c(O)c(O)c1`, the T/C (dose: 100.0 mg/kg/injection, schedule: Q01DX009 (ip), vehicle: saline) was 127 % of control; the T/C (dose: 200.0 mg/kg/injection, schedule: Q01DX009 (ip), vehicle: saline) was 140 and 143 % of control; the T/C (dose: 600.0 mg/kg/injection, schedule: Q01DX009 (ip), vehicle: saline) is 142 % of control [5 of 6 alive].

For the compound `COc1ccc(C(c2cc3c(cc2O)OCO3)N2CCOCC2)cc1` (configuration not stated), the survivor count (dose: 480.0 mg/kg/injection, schedule: Q01DX005 (ip), vehicle: saline with Tween-80) is 4 of 6.

For `CN(C)c1ccc(N=Nc2ccc3cc4ccccc4cc3c2)cc1`, the survivor count was 1 of 6 and 3 of 6 (dose: 100.0 mg/kg/injection, schedule: Q04DX003 (ip), vehicle: saline with Tween-80); 2 of 6 under setting [7]; 0 of 6 under setting [8].

In the case of `O=C(C[n+]1ccn(CC(OCc2ccc(Cl)cc2Cl)c2ccc(Cl)cc2Cl)c1)c1ccc(F)cc1` (configuration not stated), the survivor count runs as follows: under setting [1], 0 of 6; under setting [2], 0 of 6; under setting [3], 0 of 6.

For the compound `Nc1nc(Sc2ccc([N+](=O)[O-])c3nonc23)c2[nH]cnc2n1`, the survivor count is, setting by setting: under setting [4], 5 of 6; under setting [5], 1 of 6; under setting [6], 0 of 6.

As to `Fc1ccc(OCCC(Cn2ccnc2)c2ccc(Cl)cc2Cl)cc1` (configuration not stated), the survivor count (dose: 100.0 mg/kg/injection, schedule: Q01DX009 (ip), vehicle: saline with Tween-80) was 2 of 6 and 4 of 6; the survivor count (dose: 200.0 mg/kg/injection, schedule: Q01DX009 (ip), vehicle: saline with Tween-80) was 1 of 6.

Regarding `Cc1cc(NCCCCCCNc2cc(C)[n+](C)c3c(Cl)cccc23)c2cccc(Cl)c2[n+]1C`, the survivor count reads like this: under setting [1], 0 of 5; under setting [2], 0 of 5; under setting [3], 0 of 5.

As for `COCC12CN(C)C3C4C(OC)C1C3(C(OC)CC2O)C1CC2(O)C(OC)C(O)C4(OC(C)=O)C1C2OC(=O)c1ccccc1` (configuration not stated), the survivor count (dose: 0.19 mg/kg/injection, schedule: Q01DX005 (ip), vehicle: Klucel (hydroxypropylcellulose) (HPC)) is 1 of 6; the survivor count (dose: 0.39 mg/kg/injection, schedule: Q01DX005 (ip), vehicle: Klucel (hydroxypropylcellulose) (HPC)) is given as 0 of 6; the survivor count (dose: 0.78 mg/kg/injection, schedule: Q01DX005 (ip), vehicle: Klucel (hydroxypropylcellulose) (HPC)) is listed as 0 of 6; the survivor count (dose: 1.56 mg/kg/injection, schedule: Q01DX005 (ip), vehicle: Klucel (hydroxypropylcellulose) (HPC)) is given as 0 of 6; the survivor count (dose: 3.12 mg/kg/injection, schedule: Q01DX005 (ip), vehicle: Klucel (hydroxypropylcellulose) (HPC)) is recorded as 0 of 6; the survivor count (dose: 6.25 mg/kg/injection, schedule: Q01DX005 (ip), vehicle: Klucel (hydroxypropylcellulose) (HPC)) is on record as 0 of 6. Further, the survivor count is 0 of 6 (dose: 12.5 mg/kg/injection, schedule: Q01DX005 (ip), vehicle: Klucel (hydroxypropylcellulose) (HPC)); 0 of 6 (dose: 25.0 mg/kg/injection, schedule: Q01DX005 (ip), vehicle: Klucel (hydroxypropylcellulose) (HPC)); 0 of 6 (dose: 50.0 mg/kg/injection, schedule: Q01DX005 (ip), vehicle: Klucel (hydroxypropylcellulose) (HPC)); 0 of 6 (dose: 100.0 mg/kg/injection, schedule: Q01DX005 (ip), vehicle: Klucel (hydroxypropylcellulose) (HPC)); 0 of 6 (dose: 200.0 mg/kg/injection, schedule: Q01DX005 (ip), vehicle: Klucel (hydroxypropylcellulose) (HPC)); 1 of 6 (dose: 12.0 micrograms/kg/injection, schedule: Q01DX005 (ip), vehicle: Klucel (hydroxypropylcellulose) (HPC)).
